# Measurements from the supplement of paper PMC8728848.
# This is one part of the list.
# Key:
# Assay in all cases: glycan array binding signal (z-score within array); higher = stronger binding
# Details in all cases: glycan notation: IUPAC condensed, linker removed
# [1] = target: Fuc(a1-2)Gal
# In short: (§1)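 Glycan array binding is given as a within-array Z-score, which can be read as non-binding when negative. The arrays, 3228 of them, came from the Consortium for Functional Glycomics database and were retained only where the protein sequence was available. Z-scores were averaged across arrays of the same protein sequence at different concentrations or buffers and across linkers.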
# [2] = target: Fuc(a1-2)Gal(b1-3)GalNAc
# In short: as §1
# [3] = target: Fuc(a1-2)Gal(b1-3)GalNAc(a1-3)[Fuc(a1-2)]Gal(b1-4)Glc
# In short: as §1
# [4] = target: Fuc(a1-2)Gal(b1-3)GalNAc(a1-3)[Fuc(a1-2)]Gal(b1-4)GlcNAc
# In short: as §1
# [5] = target: Fuc(a1-2)Gal(b1-3)GalNAc(b1-3)Gal
# In short: as §1
# [6] = target: Fuc(a1-2)Gal(b1-3)GalNAc(b1-3)Gal(a1-4)Gal(b1-4)Glc
# In short: as §1
# [7] = target: Fuc(a1-2)Gal(b1-3)GalNAc(b1-4)[Neu5Ac(a2-3)]Gal(b1-4)Glc
# In short: as §1
# [8] = target: Fuc(a1-2)Gal(b1-3)GlcNAc
# In short: as §1
# [9] = target: Fuc(a1-2)Gal(b1-3)GlcNAc(b1-2)Man(a1-3)[Fuc(a1-2)Gal(b1-3)GlcNAc(b1-2)Man(a1-6)]Man(b1-4)GlcNAc(b1-4)GlcNAc
# In short: as §1
# [10] = target: Fuc(a1-2)Gal(b1-3)GlcNAc(b1-2)Man(a1-3)[Fuc(a1-2)Gal(b1-3)GlcNAc(b1-2)Man(a1-6)]Man(b1-4)GlcNAc(b1-4)[Fuc(a1-6)]GlcNAc
# In short: as §1
# [11] = target: Fuc(a1-2)Gal(b1-3)GlcNAc(b1-3)Gal(b1-4)Glc
# In short: as §1
# [12] = target: Fuc(a1-2)Gal(b1-3)GlcNAc(b1-3)GalNAc
# In short: as §1
# [13] = target: Fuc(a1-2)Gal(b1-3)GlcNAc(b1-3)[Fuc(a1-2)Gal(b1-3)GlcNAc(b1-6)]GalNAc
# In short: as §1
# [14] = target: Fuc(a1-2)Gal(b1-3)GlcNAc(b1-3)[Gal(b1-4)GlcNAc(b1-6)]Gal(b1-4)Glc
# In short: as §1
# [15] = target: Fuc(a1-2)Gal(b1-3)GlcNAc(b1-3)[Neu5Ac(a2-6)Gal(b1-4)GlcNAc(b1-6)]Gal(b1-4)Glc
# In short: as §1
# [16] = target: Fuc(a1-2)Gal(b1-3)GlcNAc6S
# In short: as §1
# [17] = target: Fuc(a1-2)Gal(b1-3)[Fuc(a1-4)]GlcNAc
# In short: as §1
# [18] = target: Fuc(a1-2)Gal(b1-3)[Fuc(a1-4)]GlcNAc(b1-2)Man(a1-3)[Fuc(a1-2)Gal(b1-3)[Fuc(a1-4)]GlcNAc(b1-2)Man(a1-3)]Man(b1-4)GlcNAc(b1-4)GlcNAc
# In short: as §1
# [19] = target: Fuc(a1-2)Gal(b1-3)[Fuc(a1-4)]GlcNAc(b1-2)Man(a1-3)[Fuc(a1-2)Gal(b1-3)[Fuc(a1-4)]GlcNAc(b1-2)Man(a1-6)]Man(b1-4)GlcNAc(b1-4)[Fuc(a1-6)]GlcNAc(b1-4)[Fuc(a1-6)]GlcNAc
# In short: as §1
# [20] = target: Fuc(a1-2)Gal(b1-3)[Fuc(a1-4)]GlcNAc(b1-3)[Fuc(a1-3)[Gal(b1-4)]GlcNAc(b1-6)]Gal(b1-4)Glc
# In short: as §1
# [21] = target: Fuc(a1-2)Gal(b1-3)[Fuc(a1-4)]GlcNAc(b1-3)[Gal(b1-4)GlcNAc(b1-6)]Gal(b1-4)Glc
# In short: as §1
# [22] = target: Fuc(a1-2)Gal(b1-4)Fuc(a1-3)]GlcNAc(b1-2)Man(a1-3)[Fuc(a1-2)Gal(b1-4)[Fuc(a1-3)]GlcNAc(b1-2)Man(a1-6)]Man(b1-4)GlcNAc(b1-4)GlcNAc
# In short: as §1
# [23] = target: Fuc(a1-2)Gal(b1-4)Glc
# In short: as §1
# [24] = target: Fuc(a1-2)Gal(b1-4)Glc6S
# In short: as §1
# [25] = target: Fuc(a1-2)Gal(b1-4)GlcNAc
# In short: as §1
# [26] = target: Fuc(a1-2)Gal(b1-4)GlcNAc(b1-2)Man
# In short: as §1
# [27] = target: Fuc(a1-2)Gal(b1-4)GlcNAc(b1-2)Man(a1-3)[Fuc(a1-2)Gal(b1-4)GlcNAc(b1-2)Man(a1-6)]Man(b1-4)GlcNAc(b1-4)GlcNAc
# In short: as §1
# [28] = target: Fuc(a1-2)Gal(b1-4)GlcNAc(b1-2)Man(a1-3)[Fuc(a1-2)Gal(b1-4)GlcNAc(b1-2)Man(a1-6)]Man(b1-4)GlcNAc(b1-4)[Fuc(a1-6)]GlcNAc
# In short: as §1
# [29] = target: Fuc(a1-2)Gal(b1-4)GlcNAc(b1-2)[Fuc(a1-2)Gal(b1-4)GlcNAc(b1-4)]Man(a1-3)[Fuc(a1-2)Gal(b1-4)GlcNAc(b1-2)Man(a1-6)]Man(b1-4)GlcNAc(b1-4)GlcNAc
# In short: as §1
# [30] = target: Fuc(a1-2)Gal(b1-4)GlcNAc(b1-3)Gal(b1-4)GlcNAc
# In short: as §1
# [31] = target: Fuc(a1-2)Gal(b1-4)GlcNAc(b1-3)Gal(b1-4)GlcNAc(b1-2)Man(a1-3)[Fuc(a1-2)Gal(b1-4)GlcNAc(b1-3)Gal(b1-4)GlcNAc(b1-2)Man(a1-6)]Man(b1-4)GlcNAc(b1-4)GlcNAc
# In short: as §1
# [32] = target: Fuc(a1-2)Gal(b1-4)GlcNAc(b1-3)Gal(b1-4)GlcNAc(b1-3)Gal(b1-4)GlcNAc
# In short: as §1
# [33] = target: Fuc(a1-2)Gal(b1-4)GlcNAc(b1-3)GalNAc
# In short: as §1
# [34] = target: Fuc(a1-2)Gal(b1-4)GlcNAc(b1-3)[Fuc(a1-2)Gal(b1-4)GlcNAc(b1-6)]GalNAc
# In short: as §1
# [35] = target: Fuc(a1-2)Gal(b1-4)GlcNAc(b1-3)[Fuc(a1-3)[Gal(b1-4)]GlcNAc(b1-6)]Gal(b1-4)Glc
# In short: as §1
# [36] = target: Fuc(a1-2)Gal(b1-4)GlcNAc(b1-6)GalNAc
# In short: as §1
# [37] = target: Fuc(a1-2)Gal(b1-4)GlcNAc6S
# In short: as §1
# [38] = target: Fuc(a1-2)Gal(b1-4)[Fuc(a1-3)]GlcNAc
# In short: as §1
# [39] = target: Fuc(a1-2)Gal(b1-4)[Fuc(a1-3)]GlcNAc(b1-2)Man(a1-3)[Fuc(a1-2)Gal(b1-4)[Fuc(a1-3)]GlcNAc(b1-2)Man(a1-6)]Man(b1-4)GlcNAc(b1-4)[Fuc(a1-6)]GlcNAc
# In short: as §1
# [40] = target: Fuc(a1-2)Gal(b1-4)[Fuc(a1-3)]GlcNAc(b1-2)[Fuc(a1-2)Gal(b1-4)[Fuc(a1-3)]GlcNAc(b1-4)]Man(a1-3)[Fuc(a1-2)Gal(b1-4)[Fuc(a1-3)]GlcNAc(b1-2)Man(a1-6)]Man(b1-4)GlcNAc(b1-4)GlcNAc
# In short: as §1
# [41] = target: Fuc(a1-2)Gal(b1-4)[Fuc(a1-3)]GlcNAc(b1-3)Gal(b1-4)[Fuc(a1-3)]GlcNAc
# In short: as §1
# [42] = target: Fuc(a1-2)Gal(b1-4)[Fuc(a1-3)]GlcNAc(b1-3)Gal(b1-4)[Fuc(a1-3)]GlcNAc(b1-3)Gal(b1-4)[Fuc(a1-3)]GlcNAc
# In short: as §1
# [43] = target: Fuc(a1-2)Gal(b1-4)[Fuc(a1-3)]GlcNAc(b1-3)GalNAc
# In short: as §1
# [44] = target: Fuc(a1-2)Gal(b1-4)[Fuc(a1-3)]GlcNAc(b1-3)[Neu5Ac(a2-6)Gal(b1-4)GlcNAc(b1-6)]Gal(b1-4)Glc
# In short: as §1
# [45] = target: Fuc(a1-2)Gal3S(b1-4)GlcNAc
# In short: as §1
binder,measurement,setting,value
SP15308C-bot-338-23-338 (Bacteroides ovatus) (protein) DEWTDEQFKQLISFKTQPGGWGVTDVHVRYANSAKYTYNLPVLVSGSTDNTDDRLVSFSLRDDTLDILNFEKFGNRPELYFRELPQKYYSFPKELTIPAGQSHALLPIEFSLDGLDDSQKWALPLKVCEDANGTYAVNPRKYYRTAVLRPILFNEFSGRFSGSSLLGTMAGESDIKFSSTEIKLNVVTDSIVFFYAGQRTEDYEDRINYKVFLQFTGDKVDSKKDLYKMKIWAENEKLKFNSYSTPTYKVSSEMDATKTYLKHTYIVISDIDFDFVDYTSVPNYEIEYNMKGGLSVSRDLDTRKPDEDQGSDSKWW,glycan array binding signal (z-score),[1],-0.164
same,glycan array binding signal (z-score),[2],-0.082
same,glycan array binding signal (z-score),[3],-0.56
same,glycan array binding signal (z-score),[4],-0.687
same,glycan array binding signal (z-score),[5],0.077
same,glycan array binding signal (z-score),[6],-0.001
same,glycan array binding signal (z-score),[7],-0.142
same,glycan array binding signal (z-score),[8],-0.068
same,glycan array binding signal (z-score),[9],2.27
same,glycan array binding signal (z-score),[10],-0.142
same,glycan array binding signal (z-score),[11],-0.549
same,glycan array binding signal (z-score),[12],-0.215
same,glycan array binding signal (z-score),[13],-0.067
same,glycan array binding signal (z-score),[14],-0.06
same,glycan array binding signal (z-score),[15],-0.409
same,glycan array binding signal (z-score),[16],-0.357
same,glycan array binding signal (z-score),[17],-0.43
same,glycan array binding signal (z-score),[18],-0.066
same,glycan array binding signal (z-score),[19],0.022
same,glycan array binding signal (z-score),[20],0.338
same,glycan array binding signal (z-score),[21],-0.476
same,glycan array binding signal (z-score),[22],0.689
same,glycan array binding signal (z-score),[23],0.084
same,glycan array binding signal (z-score),[24],-0.339
same,glycan array binding signal (z-score),[25],-0.869
same,glycan array binding signal (z-score),[26],-0.503
same,glycan array binding signal (z-score),[27],0.539
same,glycan array binding signal (z-score),[28],-0.069
same,glycan array binding signal (z-score),[29],-0.436
same,glycan array binding signal (z-score),[30],-0.778
same,glycan array binding signal (z-score),[31],0.228
same,glycan array binding signal (z-score),[32],-0.544
same,glycan array binding signal (z-score),[33],1.1
same,glycan array binding signal (z-score),[34],-0.151
same,glycan array binding signal (z-score),[35],-0.2
same,glycan array binding signal (z-score),[36],0.278
same,glycan array binding signal (z-score),[37],0.208
same,glycan array binding signal (z-score),[38],-0.86
same,glycan array binding signal (z-score),[39],-0.126
same,glycan array binding signal (z-score),[40],0.437
same,glycan array binding signal (z-score),[41],-0.145
same,glycan array binding signal (z-score),[42],0.281
same,glycan array binding signal (z-score),[43],1.08
same,glycan array binding signal (z-score),[44],-0.254
same,glycan array binding signal (z-score),[45],-0.996

# Nothing new here: entries from further up.
binder,measurement,setting,value
SP15308C-bot-338-23-338 (Bacteroides ovatus) (protein) DEWTDEQFKQLISFKTQPGGWGVTDVHVRYANSAKYTYNLPVLVSGSTDNTDDRLVSFSLRDDTLDILNFEKFGNRPELYFRELPQKYYSFPKELTIPAGQSHALLPIEFSLDGLDDSQKWALPLKVCEDANGTYAVNPRKYYRTAVLRPILFNEFSGRFSGSSLLGTMAGESDIKFSSTEIKLNVVTDSIVFFYAGQRTEDYEDRINYKVFLQFTGDKVDSKKDLYKMKIWAENEKLKFNSYSTPTYKVSSEMDATKTYLKHTYIVISDIDFDFVDYTSVPNYEIEYNMKGGLSVSRDLDTRKPDEDQGSDSKWW,glycan array binding signal (z-score),[31],0.228
same,glycan array binding signal (z-score),[32],-0.544
same,glycan array binding signal (z-score),[33],1.1
same,glycan array binding signal (z-score),[34],-0.151
same,glycan array binding signal (z-score),[35],-0.2
same,glycan array binding signal (z-score),[36],0.278
same,glycan array binding signal (z-score),[37],0.208
same,glycan array binding signal (z-score),[38],-0.86
same,glycan array binding signal (z-score),[39],-0.126
same,glycan array binding signal (z-score),[40],0.437
same,glycan array binding signal (z-score),[41],-0.145
